The source of these data is PubChem BioAssay AID651803 (National Center for Advancing Translational Sciences (NCATS), 2012).

Protein sequences, listed by entry. Tags and fused reporters are not part of them. Lines headed by an entry give the natural chain unless they say otherwise; changes in a name come on top.
UniProt P11308: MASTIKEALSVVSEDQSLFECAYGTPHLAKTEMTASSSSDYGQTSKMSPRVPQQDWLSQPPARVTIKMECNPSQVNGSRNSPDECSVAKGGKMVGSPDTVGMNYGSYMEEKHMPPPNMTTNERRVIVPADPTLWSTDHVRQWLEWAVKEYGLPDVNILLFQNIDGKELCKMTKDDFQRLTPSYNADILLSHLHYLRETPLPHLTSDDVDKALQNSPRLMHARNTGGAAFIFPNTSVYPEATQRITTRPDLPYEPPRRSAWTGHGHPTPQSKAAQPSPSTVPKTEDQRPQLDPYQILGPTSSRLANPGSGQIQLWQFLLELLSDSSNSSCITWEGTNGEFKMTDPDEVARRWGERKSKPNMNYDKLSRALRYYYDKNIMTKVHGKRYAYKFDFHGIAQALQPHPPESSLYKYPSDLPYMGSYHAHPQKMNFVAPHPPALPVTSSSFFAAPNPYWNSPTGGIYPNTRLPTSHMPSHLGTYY

In all, about 1,200 compounds went through this assay and fewer than 10 were called active. Calls come from the whole dose curve; as a rule, active = well fitted curve in the direction sought with a large enough effect; inconclusive = small, poorly fitted or top-dose-only effect, or another doubt; inactive = no such curve, though single readings can be large or run the other way. Some of the results follow.

The experiment deals with Transcriptional regulator ERG (Homo sapiens) (UniProt P11308). As to the kind of experiment: qHTS for Small Molecule Inhibitors of the ERG Ets/DNA interaction: TR assay against cherry picks. Note: % of control where 0% means no effect. The conditions noted are these: ERG Ets domain-DNA fluorescence polarization, Texas red probe; at 154 µM (top of the series). An outline of the steps:
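Polarization read sequentially for fluorescein (ex 480/em 535 nm) and Texas red (ex 555/em 632 nm) probes, 5 nM and 100 nM solutions, displaced from His-ERG Ets domain (1 uM solution), pH 7.5 Tris/KCl/EDTA/DTT buffer.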
(Quantitative high-throughput screening tests each substance at several concentrations.)
`COc1ccc(C(=O)Nc2nc(-c3ccc(OC)cc3)c(-c3ccc([N+](=O)[O-])cc3)s2)cc1`: the activity change, negative = inhibition is inactive: 2.54%.

Regarding `Cc1ccc(OCCn2cc(/C=N/NC(=O)c3ccncc3)c3ccccc32)cc1`, the activity change, negative = inhibition is inactive: -10.8%.

Turning to `CCN(C(=O)COC(=O)c1ccc(=O)n(Cc2ccccc2)n1)C1CCS(=O)(=O)C1` (stereo not given), the activity change, negative = inhibition was inactive: 1.68%.

Turning to `COc1cc(CO)ccc1OCC(=O)Nc1cccc2ccccc12`, the activity change, negative = inhibition is inactive: -4.89%.

As to `COCCN1C=C2C(=O)C(C)(OC(=O)CCC(=O)OC)C(=O)C=C2C=C1C1CC1` (stereo not given), the activity change, negative = inhibition is inactive: 1.47%.

Turning to `O=C(NCc1cccs1)c1ccc([N+](=O)[O-])cc1`, the activity change, negative = inhibition is inactive: -1.6%.

With `O=C(CN1C(=O)NC2(CCCC2)C1=O)Nc1nc2ccccc2s1`, the activity change, negative = inhibition is inactive: -9.58%.

Regarding `CC(=O)Oc1ccc(C(=O)Nc2ccccc2C(=O)Nc2ccc(C(=O)O)cc2)cc1`, the activity change, negative = inhibition was inactive: -1.26%.

For `COc1cc(NC(=O)COC(=O)CNC(=O)C2CCCCC2)cc(OC)c1`, the activity change, negative = inhibition is inactive: 6.23%.

Regarding `O=C1c2ccc3c4c(ccc(c24)C(=O)N1CCCCO)C(=O)N(CCCCO)C3=O`, the activity change, negative = inhibition was inactive: -5.89%.

For the compound `COc1cccc(NC(=O)NNC(=O)c2ccc3c(c2)NC(=O)C(C)(C)O3)c1`, the activity change, negative = inhibition is inactive: 4.75%.

Consider `COCC(=O)NCc1ccc2c(c1)cc(C)n2C`, for which the activity change, negative = inhibition is inactive: 1.54%.

For the compound `Cc1cc(C)c(/C=C2\C(=O)Nc3ccccc32)[nH]1`, the activity change, negative = inhibition is inactive: 365%.

As for `COC(=O)C(CCSC)NC(=O)c1cc2c(n(-c3ccccc3)c1=O)CC(C)(C)CC2=O` (stereo not given), the activity change, negative = inhibition was inactive: 4.45%.

`O=C(/C=C/c1ccccc1)NCCc1nc2ccccc2[nH]1`: the activity change, negative = inhibition was inactive: -1.61%.

As for `CC1(C)CC(=O)C2=C(C1)Nc1ccccc1NC2c1nc2ccccc2[nH]1` (stereo not given), the activity change, negative = inhibition is inactive: 1.35%.

Consider `O=C(NCCN1CCN(Cc2ccccc2Cl)CC1)Nc1ccccc1`, for which the activity change, negative = inhibition was inactive: 20.2%.

With `COc1ccc(CCNC(=O)c2cccc(S(=O)(=O)N3CCCC3)c2)cc1`, the activity change, negative = inhibition is inactive: 0.22%.

`COc1cnn(-c2cccc(Cl)c2)c(=O)c1Cl`: the activity change, negative = inhibition is inactive: -8.08%.

In the case of `CCn1nc(C)cc1C(=O)N1CCCC(N2CCN(Cc3ccc4c(c3)OCO4)CC2)C1` (stereo not given), the activity change, negative = inhibition is inactive: 0.513%.

In the case of `COc1ccc(CC(=O)OCC(=O)c2ccc(OC)cc2)cc1`, the activity change, negative = inhibition was inactive: 2.92%.

`S=c1[nH]nc(CSCCOc2ccccc2)o1`: the activity change, negative = inhibition is inactive: -12.2%.

For the compound `O=C(COC(=O)COc1ccc(Cl)cc1)NCCCc1ccccc1`, the activity change, negative = inhibition was inactive: -14.4%.

Regarding `COc1ccc(CNCCC2(C(C)C)CCOC(C)(C)C2)cc1` (stereo not given), the activity change, negative = inhibition is inactive: 5.23%.

`CC(=O)Nc1cccc(S(C)(=O)=O)c1`: the activity change, negative = inhibition was inactive: 1.2%.

`COc1ccc(-c2cc(C(F)(F)F)n3nc(C(=O)N(C)Cc4ccccc4)cc3n2)cc1OC`: the activity change, negative = inhibition is inactive: -11.8%.

`CC(C)c1ccc(NC(=O)CSc2nc(-c3ccccc3F)nc3nc[nH]c23)cc1`: the activity change, negative = inhibition was inactive: 4.16%.

Turning to `COCCn1c(=O)c2c(nc3n2CC(C)CN3CCc2ccccc2)n(C)c1=O` (stereo not given), the activity change, negative = inhibition was inactive: -9.7%.

As for `CC(C)(C)c1ccc(C(=O)NCC(=O)OCC(=O)Nc2ccccc2[N+](=O)[O-])cc1`, the activity change, negative = inhibition is inactive: -11%.

Regarding `CC(=O)Nc1ccc(S(=O)(=O)NCC(=O)OCC(=O)NCc2ccco2)cc1`, the activity change, negative = inhibition is inactive: 12.3%.

Regarding `O=C(CCC1CCCN(C(=O)c2ccsc2)C1)NCc1ccc(F)c(F)c1` (stereo not given), the activity change, negative = inhibition was inactive: 13.5%.

Turning to `O=C(Nc1ccccc1)c1sccc1Oc1ccc([N+](=O)[O-])cc1F`, the activity change, negative = inhibition is inactive: -2.74%.

`CC(=O)NNc1cc(N2CCOCC2)nc(N2CCOCC2)n1`: the activity change, negative = inhibition was inactive: 30%.

As for `CC(C)n1cc(/C=N/NC(=O)COc2cccc3cccnc23)c2ccccc21`, the activity change, negative = inhibition is inactive: -3.87%.

With `CC(C)CNC(=O)CCc1nc(-c2ccccc2)no1`, the activity change, negative = inhibition was inactive: -4.45%.

On to `CC1CC(C)CN(CCCNS(=O)(=O)c2cc(Br)cc3c2N(C(=O)C2CC2)CC3)C1` (stereo not given), for which the activity change, negative = inhibition is inactive: -24.7%.

Consider `COc1ccc(NC(=O)COc2ccccc2Cc2ccccc2)cn1`, for which the activity change, negative = inhibition was inactive: -10.6%.

On to `NC(=O)c1cc(S(=O)(=O)NCCc2ccccc2)cs1`, for which the activity change, negative = inhibition was inactive: -0.986%.

As to `Cc1cccc(NC2(C(=O)O)CCCC2)c1`, the activity change, negative = inhibition was inactive: -8.83%.

Take `Cc1cccc(C(=O)NCCNc2nc3cc(C)c(C)cc3cc2C)c1`: the activity change, negative = inhibition is inactive: -15%.

For `CN(C(=O)CSc1nc(-c2ccccc2)c(-c2ccccc2)o1)C1CCS(=O)(=O)C1` (stereo not given), the activity change, negative = inhibition was inactive: 1.33%.

Take `COc1ccccc1NS(=O)(=O)c1cc(C(=O)N2CCCC2)ccc1C`: the activity change, negative = inhibition was inactive: 6.04%.

As to `COc1ccc(C(=O)c2cccc(C(=O)c3ccc(OC)c(C)c3)c2)cc1C`, the activity change, negative = inhibition is inactive: -5.02%.

As for `Cc1cnccc1CNC(=O)CC1C(=O)NCCN1CC(C)(C)C` (stereo not given), the activity change, negative = inhibition is inactive: -7.1%.

In the case of `O=C(O)CNC(=O)CC1S/C(=N/N=C/c2ccccc2O)NC1=O` (stereo not given), the activity change, negative = inhibition is inactive: 5.01%.

As to `Cc1cccc(C)c1OCC(=O)N(Cc1ccc(Cl)cc1)C1CCS(=O)(=O)C1` (stereo not given), the activity change, negative = inhibition is inactive: -3.8%.

`COc1cccc(-c2nn(C)c3sc(C(=O)NCc4ccc(OC)cc4OC)cc23)c1`: the activity change, negative = inhibition is inactive: -7.44%.

With `Cc1cccc(C)c1NC(=O)C1(N2C(=O)CC2c2ccccc2)CCCCC1` (stereo not given), the activity change, negative = inhibition was inactive: 0.216%.

For `CNCCCOc1cc(C)cc(C)c1C`, the activity change, negative = inhibition was inactive: 4.73%.

With `CCN(CC)CCNC(C(=O)Nc1ccc([N+](=O)[O-])cc1Br)c1ccccc1` (stereo not given), the activity change, negative = inhibition is inactive: 2.72%.

Consider `Cc1nn(CC(=O)NCCCN2CCCC2)c(=O)c2nn(-c3ccccc3)c(C)c12`, for which the activity change, negative = inhibition is inactive: -6.92%.

Turning to `Cc1ccc2nc(COc3cccc(NC(=O)c4cccc(Cl)c4)c3)cc(=O)n2c1`, the activity change, negative = inhibition was inactive: -1.72%.

Turning to `COc1ccc(C2c3[nH]c4ccccc4c3C[C@H]3C(=O)N(c4ccccc4C(=O)N4CCC[C@@H]4C(=O)O)C(=O)N23)cc1` (stereo not given in full), the activity change, negative = inhibition is inactive: -1.72%.

Turning to `O=C1CCC(C(=O)N2CCCCO2)CN1CCc1ccc(Cl)cc1` (stereo not given), the activity change, negative = inhibition was inactive: -5.39%.

Consider `COCCCC/C(=N\OCCN)c1ccc(C(F)(F)F)cc1`, for which the activity change, negative = inhibition was inactive: -9.14%.

On to `COc1ccc([N+](=O)[O-])c(OC)c1C(=O)NC(=O)Nc1c(F)c(F)c(F)c(F)c1F`, for which the activity change, negative = inhibition is inactive: -7%.

Regarding `O=C(/C=C/c1ccc(Br)cc1)c1ccc(NC2=NCCCS2)cc1`, the activity change, negative = inhibition is inactive: 5.28%.

As for `NC(=O)c1ccccc1O`, the activity change, negative = inhibition is inactive: -0.849%.

Consider `CCCCC1=CC2=CC(=O)C(C)(OC(=O)CC)C(=O)C2=CN1CCOC` (stereo not given), for which the activity change, negative = inhibition was inactive: -0.532%.

For `O=C(COc1ccc(S(=O)(=O)N2CCOCC2)cc1Cl)NCCCn1ccnc1`, the activity change, negative = inhibition is inactive: -10.1%.

As to `Oc1ccc(NCc2ccc(OCc3ccccc3)cc2)cc1`, the activity change, negative = inhibition is inactive: -2.46%.

For the compound `CCc1ccc(Nc2ncnc3nc[nH]c23)cc1`, the activity change, negative = inhibition was inactive: -5.72%.

On to `COc1cc(C(=O)Nc2ccc(Cl)c([N+](=O)[O-])c2)cc(OC)c1OC`, for which the activity change, negative = inhibition was inactive: -8.44%.

For `S=C(NCCc1ccccc1)Nc1ccc(Cl)cc1Cl`, the activity change, negative = inhibition is inactive: 0.951%.

On to `O=C(CSc1nnnn1-c1ccccc1)Nc1nc(-c2ccccc2)ns1`, for which the activity change, negative = inhibition is inactive: 2.58%.

Regarding `CC(NC(=O)c1cn(C)c2ccc(S(=O)(=O)N3CCCC3)cc2c1=O)c1ccccc1` (stereo not given), the activity change, negative = inhibition is inactive: -1.61%.

Take `CCOC(=O)C1CCCN(C(=O)c2cc3cc(OC)c(OC)cc3[nH]2)C1` (stereo not given): the activity change, negative = inhibition is inactive: 0.21%.

On to `Oc1ccc(NCc2cccc(OCc3ccc(F)cc3)c2)cc1`, for which the activity change, negative = inhibition is inactive: -4.09%.

In the case of `CCCCCNc1nc(NCCCO)c(C#N)c2c1CN(C)CC2`, the activity change, negative = inhibition is inactive: -5.54%.

Turning to `CS(=O)(=O)c1ccc([C@@H](O)[C@@H](CF)NC(=O)C(Cl)Cl)cc1`, the activity change, negative = inhibition was inactive: 1.25%.

Regarding `Cc1ccnn1-c1ccc(C(=O)OCC(=O)Nc2ccc(F)cc2)cc1`, the activity change, negative = inhibition was inactive: -5.48%.

In the case of `COCCN(C(=O)COC(=O)C1(c2ccccc2)CC1)c1c(N)n(CC(C)C)c(=O)[nH]c1=O`, the activity change, negative = inhibition was inactive: 4.6%.

On to `COC(=O)c1cc(NC(=O)c2c(Cl)cnn2C)cc(C(=O)OC)c1`, for which the activity change, negative = inhibition was inactive: -8.91%.

Turning to `CCCCn1c(N)c(N(CC(C)C)C(=O)c2ccc(S(=O)(=O)N3CCC(C)CC3)cc2)c(=O)[nH]c1=O`, the activity change, negative = inhibition was inactive: -1.13%.

With `O=C(NNC(=O)c1ccc(S(=O)(=O)N2CCCCC2)cc1)c1ccc(F)cc1`, the activity change, negative = inhibition is inactive: 0.197%.

As for `CCOc1ccc(CN2CCNC(=O)C2CC(=O)NCCCn2ccnc2)cc1` (stereo not given), the activity change, negative = inhibition is inactive: -11.6%.

In the case of `Cn1nc(C(F)(F)F)c(C#N)c1N1CCN(c2ccccn2)CC1`, the activity change, negative = inhibition is inactive: 9.86%.

With `COC(=O)C1=C(C)NC(C)=C(C(=O)OC)C1c1ccc(-c2cccc(Cl)c2Cl)o1`, the activity change, negative = inhibition was inactive: 4.57%.

For `Cc1ccc(OCCN(C)C(=O)c2cc(COc3ccc(F)cc3F)on2)cc1`, the activity change, negative = inhibition was inactive: -11.8%.

For `COc1cc(CCC(=O)OCC(=O)NC2CCCC(C)C2C)cc(OC)c1OC` (stereo not given), the activity change, negative = inhibition was inactive: 4.55%.

With `O=C(COC(=O)c1cc(-c2cccc3ccccc23)nc2ccccc12)NC1CCS(=O)(=O)C1` (stereo not given), the activity change, negative = inhibition is inactive: 59.3%.

As for `COc1ccc(NC(=S)NCc2ccc3c(c2)cc(C)n3C)cc1`, the activity change, negative = inhibition was inactive: -0.43%.

As to `COc1ccc(-c2noc(CSc3nc4ccccc4c(=O)n3-c3ccccc3)n2)cc1`, the activity change, negative = inhibition was inactive: 4.35%.

With `CC1(C)CC(=O)/C(=C\c2cccc([N+](=O)[O-])c2)C(C)(C)N1`, the activity change, negative = inhibition was inactive: 5.47%.

`Cc1cnc(C(=O)Nc2ccccc2-c2ccc(C)o2)cn1`: the activity change, negative = inhibition is inactive: 2.43%.

For the compound `S=c1[nH]nc(Cc2n[nH]c(=S)n2-c2ccccc2)n1-c1ccccc1`, the activity change, negative = inhibition is inactive: -3.36%.

As for `CCOc1ccccc1N1CCN(C(=O)c2cc(S(=O)(=O)N(C)C)ccc2N2CCCC2)CC1`, the activity change, negative = inhibition is inactive: 0.688%.

With `COc1ccc(CCN(Cc2cccs2)S(=O)(=O)c2ccc(-n3cnnn3)c(OC)c2)cc1OC`, the activity change, negative = inhibition is inactive: 0.377%.

For the compound `Cc1occc1C(=O)NNS(=O)(=O)c1ccc(Cl)cc1`, the activity change, negative = inhibition was inactive: -6.78%.

For the compound `COc1ccc(N(CCC(=O)Nc2ccccc2F)S(=O)(=O)c2ccc(C)cc2C)cc1`, the activity change, negative = inhibition was inactive: 7.19%.
